Test results taken from PubChem BioAssay AID540256 (National Center for Advancing Translational Sciences (NCATS), 2011).
The campaign covered roughly 300,000 compounds. About 3,700 (1.2%) were called active. The inconclusive results got no clear call from the source; some entries with a clear call stand among them for comparison. Calls come from the whole dose curve; tested in HEK293 cells. Potencies of inconclusive entries are doubtful fits and often do not repeat.

Assay: qHTS for Inhibitors of binding or entry into cells for Lassa Virus; note: nearly all actives have a fitted effect of over 50% in size
Conditions: Lassa virus pseudotype entry inhibition, cell reporter; activity change, negative = inhibition: at 37.9 µM (top of the series) unless noted
% is set by controls: 0 for no effect and ±100 for the full control effect; potency is the fitted concentration of half-maximal effect.

SMILES	Potency	activity change, negative = inhibition
CC(C)(C)NC(=O)CN(C(=O)c1snc(C(=O)NC2CCCCC2)c1N)c1ccc(F)cc1	inconclusive: 2.82 µM [inhibitor, single point]	
Cc1ccc(-c2csc3ncn(-n4c(C)ccc4C)c(=O)c23)o1		inactive: -2.47%
CC(=O)OC1CCC2C3CCC4=C(CC(F)C(=O)C4)C3CCC12C (configuration not stated)	inconclusive: 14.1 µM [inhibitor, single point]	
CC1CN(C2CCN(S(=O)(=O)c3ccccc3)CC2)CC(C)O1 (configuration not stated)	inconclusive: 0.184 µM [activator, full curve, poor fit]	
Cc1ccc(-n2ncc(C(=O)NC3CC3)c2C2CCN(C(=O)OC(C)(C)C)CC2)c(C)c1	inconclusive: 0.891 µM [inhibitor, full curve, poor fit]	
CCCN(CCC)CC(O)Cn1cc(/C=C/C(=O)c2ccc(C)cc2)c2ccccc21 (configuration not stated)	inconclusive: 22.4 µM [inhibitor, single point]	
Clc1ccc(-c2nnc(-c3ccccc3)c(-c3ccccc3)n2)cc1		inactive: -17.4%
Cc1cccc(NC(=O)c2cc(=O)c3ccccc3o2)c1	inconclusive: 7.08 µM [activator, full curve, poor fit]	
COc1ccc(S(=O)(=O)n2ccc(-c3ccc4c(c3)CCC(C)(C)O4)n2)cc1	inconclusive: 11.2 µM [inhibitor, partial curve, poor fit]	
Cc1ccccc1Cn1c(=N)n(CC(O)c2ccco2)c2ccccc21 (configuration not stated)		inactive: -4.81%
O=C(Nc1nc(-c2ccc(Br)cc2)cs1)c1cccnc1		inactive: -2.16%
O=C(Nc1ccc(F)cc1)Nc1nnc(-c2ccncc2)s1	inconclusive: 20.6 µM [inhibitor, single point]	
CCOc1ccc2oc(C(=O)OCC(=O)NCC3CCCO3)c(C)c2c1 (configuration not stated)	active: 11.2 µM	
Cc1sc2ncnc(SCC(=O)c3cccs3)c2c1C	inconclusive: 23.1 µM [activator, partial curve, poor fit]	
Cc1cccc(N(C)C(=O)CCS(=O)(=O)c2ccc3c(c2)oc(=O)n3C)c1		inactive: 23.8% [at 46.1 µM]
O=C(NCCCc1ccccc1)c1ccccc1O		inactive: 25%
CCOC(=O)c1c(S(=O)(=O)N2CCC(C(=O)NCc3ccc(F)cc3)CC2)c(C)n(C)c1C		inactive: 7.82% [at 46.1 µM]
CC(C)c1ccc(C(=O)NCCCN2CCN(CCCNC(=O)c3ccc(C(C)C)cc3)CC2)cc1	active: 11.2 µM	
O=c1[nH]c2cccnc2c2ccsc12		inactive: 0.68%
Cc1ccccc1-c1noc(-c2cccnc2NCc2ccco2)n1	inconclusive: 12.6 µM [activator, partial curve, poor fit]	
O=C(Nc1ccc(F)cc1)c1cccnc1N1CCCCC1	inconclusive: 2.91 µM [activator, partial curve, poor fit]	

Given in markdown: part of the list above.

| SMILES | Potency | activity change, negative = inhibition |
| --- | --- | --- |
| O=C(NCCCc1ccccc1)c1ccccc1O |  | inactive: 25% |
| CCOC(=O)c1c(S(=O)(=O)N2CCC(C(=O)NCc3ccc(F)cc3)CC2)c(C)n(C)c1C |  | inactive: 7.82% [at 46.1 µM] |

The results go on.

SMILES	Potency	activity change, negative = inhibition
CC(=O)C1=C(O)C(=O)N(c2cccnc2)C1c1ccc(Cl)cc1 (configuration not stated)	inconclusive: 23.1 µM [inhibitor, partial curve, poor fit]	
COc1ccc2nc(C)cc(SCC(=O)N/N=C/c3cccc4ccccc34)c2c1	active: 13 µM	
COC(=O)CC1c2ccccc2C=C(C=Cc2ccc3c(c2)OCO3)N1C(=O)OC (configuration not stated)	inconclusive: 1.5 µM [inhibitor, partial curve, poor fit]	
CCn1c(=O)c([N+](=O)[O-])c(N2CCN(Cc3ccc4c(c3)OCO4)CC2)c2ccccc21	inconclusive: 11.2 µM [inhibitor, partial curve, poor fit]	
CCOC(=O)c1c(NC(=O)CN2C(=O)NC3(CCC(CC)CC3)C2=O)sc(C)c1-c1ccc(C)cc1 (configuration not stated)	inconclusive: 3.55 µM [inhibitor, partial curve, poor fit]	
CC1([N+](=O)[O-])COP(=O)(Nc2ccc(Cl)cc2)OC1 (configuration not stated)	inconclusive: 11.2 µM [inhibitor, partial curve, poor fit]	
COc1ccc(Cl)cc1NC(=O)CN1C(=O)CN=C(c2ccccc2)c2cc(Cl)ccc21	inconclusive: 35.5 µM [inhibitor, single point]	
Cc1ccc(C2=NN(C(=O)c3ccccc3F)C(c3ccccc3F)C2)cc1 (configuration not stated)	inconclusive: 12.6 µM [inhibitor, partial curve]	
CCN(c1ccccc1)c1ccc2cc(S(=O)(=O)N3CCCC3)ccc2n1		inactive: -24.7% [at 46.1 µM]
c1ccc(CCc2nn3c(Cn4cnc5ccccc54)nnc3s2)cc1	inconclusive: 10.3 µM [inhibitor, partial curve, poor fit]	
CCc1ccccc1Nc1nn2c(=O)c3ccc(C(=O)NCc4ccccc4OC)cc3nc2s1	inconclusive: 5.62 µM [inhibitor, partial curve, poor fit]	
CCOc1ccc(Nc2ncnc3c2nc2n3CCCC2)cc1	inconclusive: 3.16 µM [activator, partial curve, poor fit]	
CCS(=O)(=O)N1Cc2ccccc2CC1C(=O)NC(C)C12CC3CC(CC(C3)C1)C2 (configuration not stated)	inconclusive: 35.5 µM [inhibitor, single point]	
Cc1ccccc1-c1nc(CN(Cc2c(C)nn(C)c2C)C2CC2)c(C)o1	inconclusive: 10 µM [inhibitor, partial curve, poor fit]	
O=C(CSc1nnc(-c2ccc(Br)o2)n1Cc1ccccc1)c1ccccc1F	inconclusive: 14.6 µM [inhibitor, single point]	
O=C(O)c1cccc(Nc2ncnc3c2cnn3-c2ccccc2)c1	inconclusive: 25.1 µM [inhibitor, single point]	
CCOc1ccc(Nc2nc3cc(Cl)c(Cl)cc3nc2-n2nc(C)cc2C)cc1		inactive: 4.85% [at 46.1 µM]
COc1ccc(CC(=O)Nc2cccc(C(=O)O)c2C)cc1	inconclusive: 25.9 µM [activator, single point]	
O=C(NCc1ccncc1)c1ccc(Cl)c(S(=O)(=O)N2CCOCC2)c1	inconclusive: 20.6 µM [activator, single point]	
COc1ccc(Cl)cc1NC(=O)c1cn(C2CCCCC2)c(=O)c2c1c1ccccc1n2C	inconclusive: 35.5 µM [activator, single point]	
